# Results reported in the supplement of paper PMC7411640.
# Structures can show the parent of a compound that is named as a salt. Some of the results follow. Repeats in this data set agree poorly, so a single value says little.
# Test system: MDA-MB-468
# Assay: phospho-S6 immunofluorescence (DAPI-normalised), per-plate z-score; higher = higher phospho-S6 signal (less pathway suppression)
# Details: 24 h
# Method: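 GPCR-targeted compound library (MedChemExpress HY-L006) tested on MDA-MB-468 PTEN-null TNBC cells in 384-well plates at 0.1, 1 or 10 uM, combined with vehicle, GDC0941 450 nM or lapatinib 1 uM, for 24 h. Phospho-S6 (S240/244) immunofluorescence normalised to DAPI and expressed as a per-plate z-score; values are the mean of biological triplicates.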
# [1] = compound 0.1 µM, co-treatment: GDC0941 450 nM
# [2] = compound 0.1 µM, co-treatment: lapatinib 1 uM
# [3] = compound 0.1 µM, co-treatment: vehicle
# [4] = compound 1 µM, co-treatment: GDC0941 450 nM
# [5] = compound 1 µM, co-treatment: lapatinib 1 uM
# [6] = compound 1 µM, co-treatment: vehicle
# [7] = compound 10 µM, co-treatment: GDC0941 450 nM
# [8] = compound 10 µM, co-treatment: lapatinib 1 uM
# [9] = compound 10 µM, co-treatment: vehicle
SMILES,phospho-S6 immunofluorescence (z-score) [1],phospho-S6 immunofluorescence (z-score) [2],phospho-S6 immunofluorescence (z-score) [3],phospho-S6 immunofluorescence (z-score) [4],phospho-S6 immunofluorescence (z-score) [5],phospho-S6 immunofluorescence (z-score) [6],phospho-S6 immunofluorescence (z-score) [7],phospho-S6 immunofluorescence (z-score) [8],phospho-S6 immunofluorescence (z-score) [9]
CCC/N=C1\S/C(=C\c2ccc(OC[C@H](O)CO)c(Cl)c2)C(=O)N1c1ccccc1C [Ponesimod],0.05,0.97,0.68,0.94,0.37,0.65,–,–,–
CC(=O)OCC(=O)[C@@]1(O)CC[C@H]2[C@@H]3CCC4=CC(=O)CC[C@]4(C)[C@H]3[C@@H](O)C[C@@]21C [Hydrocortisone (acetate)],-0.56,-0.06,-0.09,-1.11,1.35,0.97,–,–,–
CC[C@H](C)[C@@H]1NC(=O)[C@H](Cc2ccc(OC)cc2)NC(=O)CCCSC[C@@H](C(=O)N2CCC[C@H]2C(=O)N[C@@H](CC(C)C)C(=O)NCC(N)=O)NC(=O)[C@H](CC(N)=O)NC(=O)[C@H](CCC(N)=O)NC1=O [Carbetocin],0.33,0.43,0.9,0.54,0,0.76,–,–,–
O=C(COc1ccc(C(=O)c2ccccc2)cc1)NC1CCN(Cc2ccccc2)CC1 [AdipoRon],0.51,0.26,-0.25,-1.48,0.25,0.3,–,–,–
COc1ccc(/C=C/C(=O)Nc2ccccc2C(=O)O)cc1OC [Tranilast],2.16,-0.9,-0.03,1.88,-0.19,0.23,–,–,–
NC(=O)NC1NC(=O)NC1=O (stereo not given) [Allantoin],0.75,1.63,0.18,0.34,0.72,0.51,–,–,–
COC(=O)CCc1ccc(OCC(O)CNC(C)C)cc1 (stereo not given) [Esmolol (hydrochloride)],0.37,-0.37,-0.06,0.82,0.08,0.64,–,–,–
CN(C)CCSSCCNC(=O)C1CCN(C(=O)CSc2ccc(Cl)cc2)CC1 [6H05 (trifluoroacetate)],-0.63,0.14,-0.7,-1.39,-0.02,-0.51,–,–,–
O=C(Nc1cccc2c(=O)cc(-c3nnn[nH]3)oc12)c1ccc(OCCCCc2ccccc2)cc1 [Pranlukast (hemihydrate)],0.7,-0.53,-0.54,0.66,1.23,0.7,–,–,–
CC(C[N+](C)(C)C)OC(N)=O (stereo not given) [Bethanechol (chloride)],0.25,-1.04,1.11,0.07,-0.61,0.67,–,–,–
CN(C)CCOC(c1ccccc1)c1ccccc1 [Diphenhydramine (hydrochloride)],0.1,-0.03,0.31,0.89,0.09,0.56,–,–,–
Nc1nccc(/C=C/c2ccccc2)n1,0.75,2.29,1.34,-0.54,0.68,0.84,–,–,–
O=C(N[C@H]1CCN(C(=O)c2cc(C(F)(F)F)cc(C(F)(F)F)c2)[C@H](Cc2ccc(Cl)cc2)C1)c1ccnc2ccccc12,-0.77,-0.58,-0.27,0.05,-0.8,0.07,–,–,–
CCCN(CCc1cccs1)[C@H]1CCc2c(O)cccc2C1 [Rotigotine],0.5,-0.19,-0.46,0.12,-0.35,-0.35,–,–,–
Cc1noc(NS(=O)(=O)c2ccc(N)cc2)c1C [Sulfisoxazole],0.96,0.46,0.58,0.96,0.24,0.41,–,–,–
CN(C)CCC(c1ccccc1)c1ccccn1 (stereo not given) [Pheniramine (Maleate)],-1.65,-1.57,-0.63,-0.5,-1.45,-0.55,–,–,–
CCN(CC)CC#CCOC(=O)C(O)(c1ccccc1)C1CCCCC1 (stereo not given) [Oxybutynin (chloride)],0.01,0.07,-0.58,1.1,-0.33,0.07,–,–,–
COc1cc(/C=C/C(=O)NCCn2c(C(F)(F)F)cc3ccccc32)cc(OC)c1OC,-0.24,-0.06,0.1,-1.27,-0.49,0.43,–,–,–
O=C(Nc1cccc2c(=O)cc(-c3nnn[nH]3)oc12)c1ccc(OCCCCc2ccccc2)cc1 [Pranlukast],-0.21,0,-0.47,0.61,1.1,-0.48,–,–,–
CCCN(CCc1cccs1)[C@H]1CCc2c(O)cccc2C1 [Rotigotine (Hydrochloride)],0.48,-1.11,-1.28,-0.17,-0.39,-1.37,–,–,–
CCN1CCCC1CNC(=O)c1cc(S(=O)(=O)CC)c(N)cc1OC (stereo not given) [Amisulpride],0.98,0.25,-0.16,0.39,0.09,-0.05,–,–,–
CC[N+](CC)(CC)CCOc1cccc(OCC[N+](CC)(CC)CC)c1OCC[N+](CC)(CC)CC [Gallamine Triethiodide],2.01,-0.53,0.83,-0.17,0.47,0.58,–,–,–
COCCc1ccc(OCC(O)CNC(C)C)cc1 (stereo not given) [Metoprolol (Succinate)],2.61,-1.38,0.61,0.31,0.24,1.08,–,–,–

# Another view of some results above.
SMILES	phospho-S6 immunofluorescence (z-score) [1]	phospho-S6 immunofluorescence (z-score) [2]	phospho-S6 immunofluorescence (z-score) [3]	phospho-S6 immunofluorescence (z-score) [4]	phospho-S6 immunofluorescence (z-score) [5]	phospho-S6 immunofluorescence (z-score) [6]	phospho-S6 immunofluorescence (z-score) [7]	phospho-S6 immunofluorescence (z-score) [8]	phospho-S6 immunofluorescence (z-score) [9]
Nc1nccc(/C=C/c2ccccc2)n1	0.75	2.29	1.34	-0.54	0.68	0.84	–	–	–
O=C(N[C@H]1CCN(C(=O)c2cc(C(F)(F)F)cc(C(F)(F)F)c2)[C@H](Cc2ccc(Cl)cc2)C1)c1ccnc2ccccc12	-0.77	-0.58	-0.27	0.05	-0.8	0.07	–	–	–
CCCN(CCc1cccs1)[C@H]1CCc2c(O)cccc2C1 [Rotigotine]	0.5	-0.19	-0.46	0.12	-0.35	-0.35	–	–	–

# Continued.

SMILES,phospho-S6 immunofluorescence (z-score) [1],phospho-S6 immunofluorescence (z-score) [2],phospho-S6 immunofluorescence (z-score) [3],phospho-S6 immunofluorescence (z-score) [4],phospho-S6 immunofluorescence (z-score) [5],phospho-S6 immunofluorescence (z-score) [6],phospho-S6 immunofluorescence (z-score) [7],phospho-S6 immunofluorescence (z-score) [8],phospho-S6 immunofluorescence (z-score) [9]
Cc1cc(C)nc(NS(=O)(=O)c2ccc(NC(=S)NC(=O)COc3ccc(Br)cc3Cl)cc2)n1,1.44,0.77,0.82,0.47,-0.49,0.5,–,–,–
CN1CCN(C2=Nc3cc(Cl)ccc3Nc3ccccc32)CC1 [Clozapine (N-oxide)],0.57,-0.45,-0.95,1.27,0.19,-0.95,–,–,–
Cc1ccc(NC(=S)NNc2c([N+](=O)[O-])cc(C(F)(F)F)cc2[N+](=O)[O-])cc1Cl,-0.75,-0.45,-1.38,-0.02,-0.74,-0.95,–,–,–
CCNC1(C(N)=O)CCN(c2ncnc3c2nc(-c2ccccc2Cl)n3-c2ccc(Cl)cc2)CC1 [Otenabant],-0.32,0.54,0.21,-0.9,-0.14,0.88,–,–,–
CNCC(O)c1ccc(O)c(O)c1 (racemic) [DL-Epinephrine],0.33,-0.13,-0.93,0.26,3.48,0.49,–,–,–
COc1ccccc1Oc1c(NS(=O)(=O)c2ccc(C(C)(C)C)cc2)nc(-c2ncccn2)nc1OCCO [Bosentan (hydrate)],0.4,-0.34,-0.02,0.7,0.14,-0.1,–,–,–
CCNC(=O)[C@@H]1CCCN1C(=O)[C@H](CCCN=C(N)N)NC(=O)[C@H](CC(C)C)NC(=O)[C@@H](C)NC(=O)[C@H](Cc1ccc(O)cc1)NC(=O)[C@H](CO)NC(=O)[C@H](Cc1c[nH]c2ccccc12)NC(=O)[C@H](Cc1cnc[nH]1)NC(=O)[C@@H]1CCC(=O)N1 [Alarelin (Acetate)],0.44,1.28,1.68,0.63,-0.42,1.43,–,–,–
CC(=O)OCC(=O)NCCCOc1cccc(CN2CCCCC2)c1 [Roxatidine (Acetate Hydrochloride)],0.18,0.58,0.71,0.64,-0.3,0.68,–,–,–
CC(C)[N+]1(C)[C@@H]2CC[C@H]1C[C@@H](OC(=O)C(CO)c1ccccc1)C2 (stereo not given in full) [Ipratropium (bromide)],-1.07,-0.05,-1.1,-1.66,-0.08,-1.49,-0.02,0.28,-0.61
COc1cc(N)c(Cl)cc1C(=O)NC1CCN(Cc2ccccc2)CC1 [Clebopride (malate)],0.55,0.41,1.18,0.44,0.4,0.5,0.46,-0.14,0.29
OC[C@@H](O)CN1CCN(c2ccccc2)CC1 [Levodropropizine],-0.47,0.47,-0.26,-0.89,-0.62,-1.05,-0.63,0.66,-0.68
O=C(/C=C/c1ccc(Cl)cc1)N1CCC2(CC1)CN(Cc1ccc(Cl)c(Cl)c1)C(=O)O2,-1.65,-1.75,-1.16,-0.28,-0.71,-1.55,–,–,–
CC(C)OC(=O)CCC/C=C\C[C@@H]1[C@@H](CC[C@@H](O)CCc2ccccc2)[C@H](O)C[C@@H]1O [Latanoprost],0.12,-1.86,-0.84,1.2,-0.48,-0.18,0.61,-0.08,-0.18
CC(C)N(CC[C@H](c1ccccc1)c1cc(CO)ccc1O)C(C)C [(R)-5-Hydroxymethyl Tolterodine],-0.63,-0.13,0.97,-0.62,-0.19,-0.28,–,–,–
CN1Cc2c(N)cccc2C(c2ccccc2)C1 (stereo not given) [Nomifensine (maleate)],-0.09,0.31,-0.61,-0.4,-0.98,-0.01,-0.09,-0.69,-0.17
CCCCc1oc2ccc(NS(C)(=O)=O)cc2c1C(=O)c1ccc(OCCCN(CCCC)CCCC)cc1 [Dronedarone],-0.01,-0.43,0.44,0.61,-3.52,0.19,-3.7,-8.99,-9.98
CN1CCC(=C2c3ccccc3C=Cc3ccccc32)CC1 [Cyproheptadine (hydrochloride sesquihydrate)],-0.04,0.6,-1,-0.3,1.97,-1.74,–,–,–
COc1ccc(/C=C/C(=O)Nc2ccccc2C(=O)O)cc1OC [Tranilast (trans-)],0.72,0.95,0.42,1.44,0,0.24,–,–,–
COc1cccc(-c2c(C)n(Cc3c(F)cccc3C(F)(F)F)c(=O)n(C[C@H](NCCCC(=O)O)c3ccccc3)c2=O)c1F [Elagolix],0.67,0.14,-0.15,0.43,0.76,0.25,0.62,-0.03,0.51
CCCCCCOc1nsnc1C1=CCCN(C)C1 [Xanomeline (oxalate)],0.52,1.33,0.02,0.15,-0.5,0.34,–,–,–
Cc1[nH]cnc1CN1CCc2c(c3ccccc3n2C)C1=O [Alosetron (Hydrochloride)],1.15,0,0.8,2.08,-0.02,-0.34,–,–,–
Cc1nccn1CCC(C(N)=O)(c1ccccc1)c1ccccc1 [Imidafenacin],1.13,-0.17,1.44,-0.78,0.48,1.02,–,–,–
Cc1cc(NC(=O)Nc2ccc(N(C)C)cc2)c2cc(F)cc(F)c2n1,-0.22,-0.51,-0.63,-0.58,-0.25,-0.74,-2.07,-0.1,-2.06
